From paper PMC5297702
Results are given in words; binding and its absence hold for the method and conditions named. Binding seen in cells or lysates may run through a third protein. Some binding calls cover weakened binding; strength is not graded here.

Protein sequences, listed by entry. Tags and fused reporters are not part of them.
UniProt Q9ES67: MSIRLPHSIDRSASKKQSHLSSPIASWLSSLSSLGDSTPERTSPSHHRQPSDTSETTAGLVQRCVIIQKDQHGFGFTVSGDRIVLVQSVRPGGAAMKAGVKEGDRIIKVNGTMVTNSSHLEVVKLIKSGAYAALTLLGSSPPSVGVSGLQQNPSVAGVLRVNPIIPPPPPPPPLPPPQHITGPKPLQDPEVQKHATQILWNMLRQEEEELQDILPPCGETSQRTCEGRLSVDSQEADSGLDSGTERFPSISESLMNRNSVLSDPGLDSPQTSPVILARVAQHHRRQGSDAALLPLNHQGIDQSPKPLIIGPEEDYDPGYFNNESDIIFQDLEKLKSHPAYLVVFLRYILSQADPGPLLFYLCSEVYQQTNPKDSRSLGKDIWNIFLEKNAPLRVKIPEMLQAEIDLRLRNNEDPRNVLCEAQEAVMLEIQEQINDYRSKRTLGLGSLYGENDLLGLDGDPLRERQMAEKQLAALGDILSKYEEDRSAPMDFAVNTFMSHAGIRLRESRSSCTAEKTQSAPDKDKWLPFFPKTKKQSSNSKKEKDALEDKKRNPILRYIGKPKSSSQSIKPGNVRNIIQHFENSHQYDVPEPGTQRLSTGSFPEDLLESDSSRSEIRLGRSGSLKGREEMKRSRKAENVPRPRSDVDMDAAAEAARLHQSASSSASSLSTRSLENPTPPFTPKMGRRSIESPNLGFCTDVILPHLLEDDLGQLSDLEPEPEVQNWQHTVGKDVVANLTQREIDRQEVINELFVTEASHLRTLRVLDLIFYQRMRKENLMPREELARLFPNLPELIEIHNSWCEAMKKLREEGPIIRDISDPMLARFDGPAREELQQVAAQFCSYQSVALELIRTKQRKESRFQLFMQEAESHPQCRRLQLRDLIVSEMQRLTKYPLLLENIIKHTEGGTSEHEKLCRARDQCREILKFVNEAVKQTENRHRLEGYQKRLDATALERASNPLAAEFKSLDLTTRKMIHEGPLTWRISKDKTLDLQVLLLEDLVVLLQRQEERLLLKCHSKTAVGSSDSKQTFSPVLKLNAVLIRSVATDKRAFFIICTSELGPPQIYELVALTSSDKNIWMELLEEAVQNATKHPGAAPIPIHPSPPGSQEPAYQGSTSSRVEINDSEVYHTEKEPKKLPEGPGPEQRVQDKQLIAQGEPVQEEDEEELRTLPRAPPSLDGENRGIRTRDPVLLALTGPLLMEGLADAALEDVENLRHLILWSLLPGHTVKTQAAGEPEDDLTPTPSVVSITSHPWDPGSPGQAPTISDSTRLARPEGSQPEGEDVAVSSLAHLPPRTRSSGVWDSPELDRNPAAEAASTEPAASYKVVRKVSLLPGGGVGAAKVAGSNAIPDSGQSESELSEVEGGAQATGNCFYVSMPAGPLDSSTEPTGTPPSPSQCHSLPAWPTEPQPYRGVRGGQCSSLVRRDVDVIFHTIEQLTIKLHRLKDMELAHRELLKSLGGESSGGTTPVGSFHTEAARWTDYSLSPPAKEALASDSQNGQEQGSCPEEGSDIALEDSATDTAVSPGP
UniProt P07825: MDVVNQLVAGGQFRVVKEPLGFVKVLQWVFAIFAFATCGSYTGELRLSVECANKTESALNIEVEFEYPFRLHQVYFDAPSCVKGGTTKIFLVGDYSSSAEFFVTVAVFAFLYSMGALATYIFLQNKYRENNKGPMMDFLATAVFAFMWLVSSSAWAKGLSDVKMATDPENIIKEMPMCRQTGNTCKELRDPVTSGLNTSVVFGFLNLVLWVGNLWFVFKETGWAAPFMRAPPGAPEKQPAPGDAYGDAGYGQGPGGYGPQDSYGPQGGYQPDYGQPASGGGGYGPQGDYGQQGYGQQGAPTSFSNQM

Molecular target: Rho guanine nucleotide exchange factor 11 (ARHGEF11) (rat (endogenous in cerebral cortex)) (UniProt Q9ES67)
Assay: co-IP; lysate of the rat cerebral cortex P2 fraction (150 nM NaCl as printed, 50 mM Tris-HCl pH 7.6, 1% NP-40) incubated overnight with ARHGEF11 (Acris) polyclonal antibodies, protein A agarose; Western blotting for synaptophysin and PSD-95; c-Myc (9E10) antibody as negative control

Q: “synaptophysin (from UniProt P07825 1-307)” was tested. Which binding did it give?
A: binds
